# Assay results as given in article PMC12040169 (PLOS Biology, 2025).
# The other results are listed elsewhere or left out.
# Tested on: T1, CTL2-GFP (C. trachomatis L2/434/Bu, GFP-expressing)
# T1 construct: L2/434/Bu, GFP-expressing
# Set-up: species or system HeLa; Intracellular C. trachomatis growth in HeLa cells, bulk GFP fluorescence relative to DMSO
# Details: bulk GFP, single well; 28.5 h, 10 µM; inhibitor
row,SMILES,% of control remaining
1,CCCn1cnc2cc(NC(=O)Cn3cccc(C(=O)Nc4ccc(F)cc4)c3=O)ccc21 [CBK286060],122.098%
2,O=C(O)c1cc(NC/C=C/c2ccccc2)ccc1N1CCOCC1 [CBK269806],79.2912%
3,CS(=O)(=O)c1ncc(Cl)c(C(=O)N(Cc2ccccc2)Cc2ccco2)n1 [CBK269603],38.2117%
4,COc1ccc(OCC2CCN(C(=O)[C@@H]3C[C@@H]4C=C[C@H]3C4)CC2)cc1 [CBK282218],114.29%
5,O=C(NCCN1CCOCC1)c1cccc(S(=O)(=O)N2CCCC2)c1 [CBK267316],135.79%
6,CN(C)c1nc(N(C)C)n(Cc2ccc(F)cc2)n1 [CBK018839],117.082%
7,CC(=O)NCCc1ccc(S(=O)(=O)N2CCN(Cc3ccccc3)CC2)cc1 [CBK268458],135.678%
8,CC(C)(CO)CNc1nc(-c2ccsc2)cnc1N [CBK063499],109.234%
9,CC(C)(C)NC(=O)Cn1cncc1-c1cnn(C2CCCCC2)c1 [CBK281701],131.84%
10,O=C(CSc1nnc(CCc2ccccc2)n1-c1ccc(Cl)cc1)c1ccccc1 [CBK266277],128.768%
11,Cc1ccc(C(=O)Oc2cccc(NC(=O)c3ccco3)c2)cc1S(=O)(=O)N1CCOCC1 [CBK263211],112.58%
12,CCc1ccc(CNC(=O)Cn2nnnc2-c2ccc(CN3CCC(C)CC3)cn2)cc1 [CBK153930C],107.639%
13,COc1ccc(C(=O)N2CCC3(CCN(C(=O)c4cccc(C#N)c4)C3)C2)cc1OC (stereo not drawn) [CBK131773],107.729%
14,COC(=O)c1ccc(NC(=O)COn2nnc3ccc([N+](=O)[O-])cc32)cc1 [CBK267106],169.263%
15,COc1ccc(N(C(C)C(=O)N/N=C(\C)c2ccccc2O)S(C)(=O)=O)cc1 (stereo not drawn) [CBK262402],99.1092%
16,COc1ccc(CN2C(=O)COC[C@@H]2[C@H](O)c2ccc(NC(=O)c3ccc(OC)cc3)cc2)cc1 [CBK289675],146.765%
17,CCCC/C=C/c1cncc(Nc2ccccc2)n1 [CBK037942],110.89%
18,Cc1ccc(S(=O)(=O)Nc2ccc3c(ccn3CCOC3CCN(C(=O)OC(C)(C)C)CC3)c2)cc1Cl [CBK172991],108.169%
19,CCC(SC1=NCCS1)C(=O)Nc1ccc(S(N)(=O)=O)cc1 (stereo not drawn) [CBK263027],100%
20,C=CCC1(CC=C)CCN1C(=O)c1cccc(N2CCCC2=O)c1 [CBK282709],138.194%
21,CCc1ccc(-c2cc3c(=O)[nH]nc(S)n3n2)cc1 [CBK288485],82.2069%

# Copied from above: nos. 2 to 3
row,SMILES,% of control remaining
2,O=C(O)c1cc(NC/C=C/c2ccccc2)ccc1N1CCOCC1 [CBK269806],79.2912%
3,CS(=O)(=O)c1ncc(Cl)c(C(=O)N(Cc2ccccc2)Cc2ccco2)n1 [CBK269603],38.2117%
